Four substances from publication doi:10.1101/2022.01.24.477037 can be followed below.

Sequences of proteins named here, by UniProt entry; tags and fusion partners are left off.
UniProt Q9Y2T1: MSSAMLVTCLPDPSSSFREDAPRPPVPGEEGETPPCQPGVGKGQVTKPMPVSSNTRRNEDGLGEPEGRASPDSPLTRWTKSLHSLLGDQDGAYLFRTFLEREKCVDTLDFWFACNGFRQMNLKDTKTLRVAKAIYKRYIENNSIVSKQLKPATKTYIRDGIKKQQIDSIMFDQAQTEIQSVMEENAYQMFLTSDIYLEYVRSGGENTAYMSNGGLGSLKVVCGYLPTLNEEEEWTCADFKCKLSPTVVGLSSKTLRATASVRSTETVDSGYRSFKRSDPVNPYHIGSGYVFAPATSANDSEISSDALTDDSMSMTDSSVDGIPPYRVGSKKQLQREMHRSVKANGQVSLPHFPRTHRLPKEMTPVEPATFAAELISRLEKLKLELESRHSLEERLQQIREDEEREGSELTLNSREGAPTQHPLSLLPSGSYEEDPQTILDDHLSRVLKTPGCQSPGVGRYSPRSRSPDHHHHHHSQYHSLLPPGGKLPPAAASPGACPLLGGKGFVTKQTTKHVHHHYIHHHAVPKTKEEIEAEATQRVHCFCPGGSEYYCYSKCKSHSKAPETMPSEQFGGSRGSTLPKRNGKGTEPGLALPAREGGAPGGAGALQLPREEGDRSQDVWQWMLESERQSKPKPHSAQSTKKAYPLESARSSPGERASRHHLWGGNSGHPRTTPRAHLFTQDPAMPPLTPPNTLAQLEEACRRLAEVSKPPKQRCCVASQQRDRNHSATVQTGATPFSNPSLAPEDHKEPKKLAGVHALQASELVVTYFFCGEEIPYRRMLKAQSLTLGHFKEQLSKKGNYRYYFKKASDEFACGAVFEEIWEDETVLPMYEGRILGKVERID
UniProt P49841: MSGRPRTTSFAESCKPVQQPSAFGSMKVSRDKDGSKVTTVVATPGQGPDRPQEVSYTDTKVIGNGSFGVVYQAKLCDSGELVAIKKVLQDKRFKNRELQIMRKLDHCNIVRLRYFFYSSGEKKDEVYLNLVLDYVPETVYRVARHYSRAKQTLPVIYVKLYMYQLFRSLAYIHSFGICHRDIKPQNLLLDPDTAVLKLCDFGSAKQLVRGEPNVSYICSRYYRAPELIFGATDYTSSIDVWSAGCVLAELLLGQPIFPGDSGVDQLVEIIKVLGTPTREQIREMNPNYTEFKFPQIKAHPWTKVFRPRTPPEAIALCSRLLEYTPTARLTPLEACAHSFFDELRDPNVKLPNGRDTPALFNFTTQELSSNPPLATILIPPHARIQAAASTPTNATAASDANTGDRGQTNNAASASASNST
UniProt P15130: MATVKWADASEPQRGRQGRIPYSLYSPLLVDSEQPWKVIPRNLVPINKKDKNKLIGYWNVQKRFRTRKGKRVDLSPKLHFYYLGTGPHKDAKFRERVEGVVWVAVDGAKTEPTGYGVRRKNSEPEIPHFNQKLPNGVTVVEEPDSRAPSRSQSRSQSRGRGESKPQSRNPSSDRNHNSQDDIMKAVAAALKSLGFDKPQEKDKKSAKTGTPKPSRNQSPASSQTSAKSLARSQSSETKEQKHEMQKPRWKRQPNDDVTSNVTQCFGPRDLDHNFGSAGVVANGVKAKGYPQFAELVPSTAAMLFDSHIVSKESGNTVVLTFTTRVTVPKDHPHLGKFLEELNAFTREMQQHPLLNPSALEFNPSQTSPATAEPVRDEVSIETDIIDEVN
UniProt Q0ZME3: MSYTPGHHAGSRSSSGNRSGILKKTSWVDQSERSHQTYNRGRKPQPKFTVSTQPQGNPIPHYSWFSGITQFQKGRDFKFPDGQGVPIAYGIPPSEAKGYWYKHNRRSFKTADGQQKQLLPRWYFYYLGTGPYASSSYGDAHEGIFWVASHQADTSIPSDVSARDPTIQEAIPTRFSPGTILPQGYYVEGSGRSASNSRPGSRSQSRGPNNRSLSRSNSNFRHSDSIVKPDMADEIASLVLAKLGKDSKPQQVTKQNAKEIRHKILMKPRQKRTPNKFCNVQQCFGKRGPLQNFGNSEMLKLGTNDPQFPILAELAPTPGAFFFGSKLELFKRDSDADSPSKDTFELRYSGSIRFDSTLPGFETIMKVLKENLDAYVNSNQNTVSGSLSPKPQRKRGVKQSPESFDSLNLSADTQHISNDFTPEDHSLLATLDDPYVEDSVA
UniProt P33469: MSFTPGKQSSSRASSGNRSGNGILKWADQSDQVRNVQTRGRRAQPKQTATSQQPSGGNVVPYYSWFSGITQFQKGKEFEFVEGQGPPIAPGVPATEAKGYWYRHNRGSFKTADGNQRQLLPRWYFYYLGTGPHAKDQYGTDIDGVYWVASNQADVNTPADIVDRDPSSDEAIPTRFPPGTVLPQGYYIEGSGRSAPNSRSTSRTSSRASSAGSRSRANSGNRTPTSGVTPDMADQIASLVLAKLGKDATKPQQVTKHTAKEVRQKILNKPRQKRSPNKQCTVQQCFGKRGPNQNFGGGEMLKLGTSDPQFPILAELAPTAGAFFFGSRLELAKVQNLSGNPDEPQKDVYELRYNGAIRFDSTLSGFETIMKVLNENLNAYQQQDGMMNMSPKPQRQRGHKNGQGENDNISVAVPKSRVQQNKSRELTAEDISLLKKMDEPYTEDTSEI

Test [1] addresses Flag-tagged Axin2 (UniProt Q9Y2T1). In words: co-IP.
The target in test [2] is HA-tagged GSK-3β, wild type (UniProt P49841). In words: co-IP.

These are yes or no findings as the source states them, for the method shown. Binding seen in cells or lysates may run through a third protein. Some binding calls cover weakened binding; strength is not graded here.

Take “HA-tagged GSK-3β, wild type (from UniProt P49841 1-420) (enzyme)”: in test [1], the binding entry is reported as “binds”.
Regarding “N protein of human coronavirus 229E, Flag-tagged (from UniProt P15130 1-389)”, the binding result in test [2] is “binds”.
“N protein of human coronavirus HKU1, Flag-tagged (from UniProt Q0ZME3 1-441)”: in test [2], the binding result is “no binding”.
Still for that read-out and setting: the entry for “N protein of human coronavirus OC43, Flag-tagged (from UniProt P33469 1-448)” is “no binding”.
